From publication PMC12227620 come the findings set out here.

The chains behind the UniProt entries cited, without tags or fusion partners. Residues count along the entry.
UniProt P25025: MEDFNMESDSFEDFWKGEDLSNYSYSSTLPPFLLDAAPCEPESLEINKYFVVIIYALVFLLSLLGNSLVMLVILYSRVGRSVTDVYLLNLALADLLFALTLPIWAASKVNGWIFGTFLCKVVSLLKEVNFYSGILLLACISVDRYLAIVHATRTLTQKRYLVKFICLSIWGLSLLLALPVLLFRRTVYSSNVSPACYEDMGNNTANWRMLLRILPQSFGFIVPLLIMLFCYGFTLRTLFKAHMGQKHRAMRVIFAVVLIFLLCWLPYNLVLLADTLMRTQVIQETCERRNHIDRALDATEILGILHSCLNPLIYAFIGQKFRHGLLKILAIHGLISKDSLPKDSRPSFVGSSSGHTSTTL
UniProt Q14126, residues 50-1118: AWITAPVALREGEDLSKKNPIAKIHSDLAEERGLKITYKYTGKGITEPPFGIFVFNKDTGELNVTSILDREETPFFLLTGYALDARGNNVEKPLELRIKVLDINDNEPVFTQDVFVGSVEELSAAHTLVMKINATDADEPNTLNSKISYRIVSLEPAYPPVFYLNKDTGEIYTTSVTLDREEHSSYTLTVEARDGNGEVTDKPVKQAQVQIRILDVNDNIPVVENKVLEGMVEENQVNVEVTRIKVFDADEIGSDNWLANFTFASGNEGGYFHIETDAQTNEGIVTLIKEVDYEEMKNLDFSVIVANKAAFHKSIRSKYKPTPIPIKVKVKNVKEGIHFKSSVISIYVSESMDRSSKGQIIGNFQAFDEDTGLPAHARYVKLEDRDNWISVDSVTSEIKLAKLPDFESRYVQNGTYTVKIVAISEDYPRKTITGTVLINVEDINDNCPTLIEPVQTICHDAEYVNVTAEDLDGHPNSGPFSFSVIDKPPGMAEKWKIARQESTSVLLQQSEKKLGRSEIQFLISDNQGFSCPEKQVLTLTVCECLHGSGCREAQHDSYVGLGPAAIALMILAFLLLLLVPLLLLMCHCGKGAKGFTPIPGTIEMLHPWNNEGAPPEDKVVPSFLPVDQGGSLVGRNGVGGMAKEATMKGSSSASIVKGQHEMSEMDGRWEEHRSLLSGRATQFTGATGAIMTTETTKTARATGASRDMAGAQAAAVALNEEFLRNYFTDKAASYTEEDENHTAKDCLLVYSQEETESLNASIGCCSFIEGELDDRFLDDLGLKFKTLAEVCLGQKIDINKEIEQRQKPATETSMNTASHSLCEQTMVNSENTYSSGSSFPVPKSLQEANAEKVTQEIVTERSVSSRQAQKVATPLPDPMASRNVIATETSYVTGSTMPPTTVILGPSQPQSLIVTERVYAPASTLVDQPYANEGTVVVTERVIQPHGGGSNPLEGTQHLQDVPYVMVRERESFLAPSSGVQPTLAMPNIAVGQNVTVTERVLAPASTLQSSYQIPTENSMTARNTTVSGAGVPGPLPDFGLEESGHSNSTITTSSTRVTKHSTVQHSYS

No constants are given. Whether binding was seen depends on the method and setting. In cells and extracts the contact can be indirect. Some results given as binding are weak or reduced against the parent protein; the word gives no strength.

The assay concerns the target CXCR2 (human (endogenous in PDAC cells)) (UniProt P25025). Kind of assay: co-IP; lysates in NP-40 buffer incubated with antibody against human CXCR2 at 4 °C overnight, Protein G magnetic beads 4 h, five washes with PBS, immunoblotting; PDAC cells. Background: Immunoblotting shows a protein as a band on a membrane.

For the substance “Desmoglein-2 (from UniProt Q14126 50-1118)”, the binding entry is “binds”.
